# Measurements from PubChem BioAssay AID504467 (National Center for Advancing Translational Sciences (NCATS), 2011).
# Screen size: about 330,000 compounds; about 7,700 (2.3%) were called active. This list was built around the results that the source calls inconclusive (neither active nor inactive); the mix of calls is not that of the screen. Calls come from the whole dose curve; as a rule, active = well fitted inhibition curve with a large enough effect; inconclusive = small, poorly fitted or top-dose-only effect, or effect the other way; inactive = flat fitted curve, though single readings scatter. Where the call is inconclusive, the potency comes from a doubtful curve fit.
# Test: qHTS screen for small molecules that inhibit ELG1-dependent DNA repair in human embryonic kidney (HEK293T) cells expressing luciferase-tagged ELG1; note: nearly all actives have a fitted effect of over 55% in size
# Conditions: HEK293T ELG1-luciferase reporter, luminescence, 16 h, DNA damage induced by 5-fluorouridine; series mostly up to 46.1 µM
# How it was run: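 DMSO vehicle served as the neutral condition. Each well held 2,000 cells given 5-fluorouridine plus compound; after 16 hr at 37 °C/5% CO2, ONE-Glo was added and luciferase measured 30 min later.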
# Potency is the fitted concentration of half-maximal effect.
row,Structure (SMILES),Potency
1,Cc1cc([N+](=O)[O-])nn1CCCC(=O)Nc1cc(Oc2ccccc2)cc([N+](=O)[O-])c1,"inconclusive: 32.6 µM [inhibitor, single point]"
2,O=S(=O)(Nc1ccccc1)c1ccc(-c2csnn2)cc1,"inconclusive: 29.1 µM [inhibitor, single point]"
3,CCCNC(=O)C(Cc1cccc(OC)c1)NC(=O)c1ccc(C(C)(C)C)cc1 (stereo unspecified),"inconclusive: 0.073 µM [activator, full curve, poor fit]"
4,CCN(c1ccccc1)S(=O)(=O)c1cccc(C(=O)NCc2ccccn2)c1,inactive
5,COc1ccc(NC(=O)/C(C#N)=C/c2ncc([N+](=O)[O-])n2C)c(OC)c1,inactive
6,O=C(Oc1ccccc1)c1cc2ccccc2o1,inactive
7,CCn1c(CNc2nc3ccccc3n2C(C)C)nc2ccccc21,inactive
8,COc1ccc(N2CCN(Cc3nc4c(c(=O)n(C)c(=O)n4C)n3C(C)C(C)=O)CC2)cc1 (stereo unspecified),inactive
9,COc1ccc2oc(-c3ccc(C)c(NC(=O)c4ccc(N5CCOCC5)c([N+](=O)[O-])c4)c3)nc2c1,"inconclusive: 8.2 µM [activator, partial curve]"
10,CCN(CC(=O)Nc1ccc(NC(C)=O)cc1)C(=O)c1cc(-c2ccccc2)nn1-c1ccccc1,"inconclusive: 5.17 µM [inhibitor, single point]"
11,O=C(COc1ccc(Cl)cc1)N/N=C/c1cccc2cccnc12,"inconclusive: 18.3 µM [inhibitor, single point]"
12,O=C(CN1CCN(C(=O)C2CCCO2)CC1)Nc1ccc(Cl)c(Cl)c1 (stereo unspecified),inactive
13,COc1cc(-n2c(=O)c3ccccc3n(Cc3cccc(F)c3)c2=O)cc(OC)c1OC,inactive
14,CCOC(=O)C1=C(C)NC(=S)N(C(C)=O)C1c1ccc(OC)c(OC)c1 (stereo unspecified),inactive
15,CCOC(=O)C1=NOC(COc2ccccc2C=O)C1 (stereo unspecified),inactive
16,COc1ccccc1CCC(=O)Nc1ccc(C)cc1Cl,"inconclusive: 16.4 µM [activator, partial curve]"
17,COc1cccc(-c2ccc3ncnc(NCc4cccc(C)c4)c3c2)c1,active: 16.4 µM
18,COc1ccc2cc(CO)c3cc(OC)c(OC)cc3c2c1,active: 8.2 µM
19,COc1cccc(-c2nc3ccccc3s2)c1O,"inconclusive: 2.59 µM [activator, partial curve]"
20,COc1ccc(C(=O)N/N=C(\C)c2ccccn2)cc1OC,"inconclusive: 6.51 µM [activator, single point]"
21,CCO[C@H]1OC(C(=O)N2CCCCCCC2)=C[C@@H](c2coc3ccccc3c2=O)[C@@H]1CCCO,"inconclusive: 1.16 µM [inhibitor, full curve]"
22,COc1ccc(C(=O)c2nc3c(n2O)CCCC3)cc1OC,inactive
23,Cc1ccccc1NCC(=O)N/N=C/C(Br)=C/c1ccccc1,inactive
24,CC1=C(CC/C(C)=N/NC(N)=S)C(C)(C)CCC1,"inconclusive: 32.6 µM [inhibitor, single point]"

row,Structure (SMILES),Potency
1,Cc1cccc(CSc2ccc3nnc(-c4ccccn4)n3n2)c1,inactive
2,O=C(Nc1ccc2c(c1)nc1n2CCN(Cc2ccccc2)C1)c1cccs1,"inconclusive: 16.4 µM [inhibitor, single point]"
3,S=c1[nH]ncn1/N=C/c1ccccc1,inactive
4,COc1cccc(N/C(SC)=C(/C#N)C(=O)NCc2cccs2)c1,"inconclusive: 29.1 µM [inhibitor, single point]"
5,NC(=O)c1nsc(C(=O)N(c2ccccc2)C(C(=O)NCc2ccc(F)cc2)c2ccc(O)cc2)c1N (stereo unspecified),"inconclusive: 10.3 µM [inhibitor, partial curve]"
6,O=C(NCc1ccccc1)C12CN(Cc3ccccc3)CC1C(c1cccc([N+](=O)[O-])c1)=NO2 (stereo unspecified),"inconclusive: 23.1 µM [inhibitor, single point]"
7,COCCN1C(=O)/C(=C/c2ccc(N3CCCC3)cc2C)SC1=S,inactive
8,COc1ccc2nc(-c3ccccn3)[nH]c2c1,"inconclusive: 2.06 µM [activator, full curve]"
9,COc1ccc(-c2nc3nc(C)c(Cc4ccccc4)c(=O)n3[nH]2)cc1,"inconclusive: 14.6 µM [activator, partial curve]"
10,O=C(O)c1cccc(N=NN2CCOCC2)c1,"inconclusive: 29.1 µM [activator, single point]"
11,CCOC(=O)c1c(-c2ccc(-c3ccccc3)cc2)csc1NC(=O)CCN1CCOCC1,"inconclusive: 23.1 µM [inhibitor, partial curve]"
12,Cc1cc2c(cc1C)NC(=O)CC(C(F)(F)C(F)(F)C(F)(F)F)=N2,"inconclusive: 20.6 µM [activator, partial curve, poor fit]"
13,O=[N+]([O-])c1ccc(NCc2ccc3c(c2)OCO3)cc1,inactive
14,Cc1cccc(Nc2nnc(SCC(=O)Nc3cccc(S(=O)(=O)N4CCCCC4)c3)s2)c1,"inconclusive: 4.11 µM [activator, single point]"
15,Cc1cc(C)c(NC(=O)c2ccc(CNS(=O)(=O)c3cc(C(F)(F)F)ccc3Cl)cc2)c(C)c1,inactive
16,COc1cccc(CNC(=O)CCCn2nc(C)c3c(C)n(-c4ccc(C)cc4)nc3c2=O)c1OC,inactive
17,O=C(N/N=C/c1ccc(N2CCOCC2)cc1)c1ccncc1,inactive
18,C=C(C)Cn1c(SCC(=O)N/N=C/c2ccccc2)nc2ccccc2c1=O,"inconclusive: 32.6 µM [inhibitor, single point]"
19,O=C(NCC1CCCO1)c1ccc2[nH]c3c(c2c1)CCCC3 (stereo unspecified),"inconclusive: 20.6 µM [activator, partial curve, poor fit]"
20,CCOC(=O)C1CCCN(C(=O)Cc2ccc(C)cc2)C1 (stereo unspecified),inactive
21,Fc1ccc(C(c2nnnn2C2CCCC2)N2CCN(Cc3ccccc3)CC2)cc1 (stereo unspecified),inactive
22,O=C(COc1ccc2c3c(c(=O)oc2c1)CCC3)NC(Cc1ccc(Cl)cc1)C(=O)O (stereo unspecified),inactive
23,O=C(CSCC(=O)c1ccccc1)Nc1ccccc1Cl,"inconclusive: 23.1 µM [activator, single point]"
24,CC1CN(CC(=O)Nc2ccc([N+](=O)[O-])cc2Br)CC(C)O1 (stereo unspecified),"inconclusive: 29.1 µM [inhibitor, single point]"

# Five neighbouring entries out of the list so far, quoted:
row,Structure (SMILES),Potency
5,COc1ccc(NC(=O)/C(C#N)=C/c2ncc([N+](=O)[O-])n2C)c(OC)c1,inactive
6,O=C(Oc1ccccc1)c1cc2ccccc2o1,inactive
7,CCn1c(CNc2nc3ccccc3n2C(C)C)nc2ccccc21,inactive
8,COc1ccc(N2CCN(Cc3nc4c(c(=O)n(C)c(=O)n4C)n3C(C)C(C)=O)CC2)cc1 (stereo unspecified),inactive
9,COc1ccc2oc(-c3ccc(C)c(NC(=O)c4ccc(N5CCOCC5)c([N+](=O)[O-])c4)c3)nc2c1,"inconclusive: 8.2 µM [activator, partial curve]"

# The list goes on:

row,Structure (SMILES),Potency
1,O=C1CN(C(=O)c2ccc(Br)o2)C(c2ccc(F)cc2)c2cc(Cl)ccc2N1 (stereo unspecified),"inconclusive: 1.3 µM [inhibitor, single point]"
2,CCC(=O)N1CCc2cc(S(=O)(=O)N3CCCCCC3)ccc21,inactive
3,COCCCNC(=S)Nc1ccc(N2CCCCC2)cc1,inactive
4,O=C(Nc1ccccc1)c1ccccc1NC(=O)C1CCCCC1,inactive
5,NC(=O)CN1C(=O)C(=O)N(Cc2cccc(C(F)(F)F)c2)C1=O,"inconclusive: 20.6 µM [activator, partial curve, poor fit]"
6,C=C1C(=O)O[C@@]23[C@H]1CC[C@@H](C)[C@@H]2CC[C@@]1(C)O[C@@H]31,"inconclusive: 20.6 µM [inhibitor, partial curve]"
7,CCC(C)C(NS(=O)(=O)c1ccc(C)cc1)C(=O)N1CCOCCOCCOCC1 (stereo unspecified),inactive
8,Cc1cc(C)n(CCc2nc(-c3ccc(F)cc3)cs2)n1,"inconclusive: 32.6 µM [activator, single point]"
9,O=C(CSCc1ccccc1)NNc1c(F)c(F)cc(F)c1F,"inconclusive: 29.1 µM [inhibitor, single point]"
10,O=c1c2ccccc2nc(-c2ccccc2)n1CCCn1ccnc1,"inconclusive: 13 µM [activator, partial curve, poor fit]"
11,COc1ccccc1N(C)S(=O)(=O)c1ccc(C(=O)N(C)Cc2ccc(Cl)s2)cc1,"inconclusive: 7.3 µM [inhibitor, partial curve, poor fit]"
12,CN(C)c1ccc(NC(=O)CN2CCN(S(=O)(=O)c3cc(Cl)ccc3Cl)CC2)cc1,"inconclusive: 2.06 µM [inhibitor, partial curve, poor fit]"
13,CCC(=O)n1nc(-c2ccc(OC)cc2)nc1NCc1cccs1,"inconclusive: 23.1 µM [activator, partial curve]"
14,CC1(C)c2[nH]c3ccccc3c2C[C@H]2C(=O)N(N)CC(=O)N21,"inconclusive: 29.1 µM [activator, partial curve, poor fit]"
15,O=C(NCC1COc2ccccc2O1)C1CCN(S(=O)(=O)c2cccc3nsnc23)CC1 (stereo unspecified),"inconclusive: 29.1 µM [inhibitor, single point]"
16,COc1ccc(C(=O)COC(=O)c2sccc2C)cc1OC,"inconclusive: 16.4 µM [activator, partial curve]"
17,COc1ccc(Oc2nc(-c3ccccc3)ncc2S(=O)(=O)c2ccccc2)cc1,"inconclusive: 8.2 µM [inhibitor, partial curve, poor fit]"
18,COc1cc(C(=O)NCC(c2ccco2)N2CCc3ccccc32)cc(OC)c1OC (stereo unspecified),"inconclusive: 4.11 µM [inhibitor, single point]"
19,Cc1c(/C=N/n2cnnc2)c2ccccc2n1CCOc1ccccc1,"inconclusive: 18.4 µM [inhibitor, partial curve, poor fit]"
20,CC#C[C@]1(O)CC[C@H]2[C@@H]3CCC4=CC(=O)CCC4=C3[C@@H](c3ccc(N(C)C)cc3)C[C@@]21C,inactive
21,COC(=O)c1ccc(NC(=O)Nc2ccc(F)cc2F)cc1,"inconclusive: 4.61 µM [activator, partial curve, poor fit]"
22,O=C1c2ccccc2NC(c2ccccn2)N1c1ccc(Cl)cc1 (stereo unspecified),"inconclusive: 20.6 µM [activator, partial curve]"
23,O=S(=O)(Nc1nc2ccccc2nc1Cl)c1ccc(Br)cc1,inactive
